Experimental data: PubChem BioAssay AID489039 (National Center for Advancing Translational Sciences (NCATS), 2010)
The shares of active, inactive and inconclusive entries below differ from those in the screen. The call rests on the fitted dose curve; in most records, active means well fitted inhibition curve with a large enough effect; inconclusive means small, poorly fitted or top-dose-only effect, or effect the other way; inactive means no such curve, though single readings can be large or run the other way. Potencies of inconclusive entries are doubtful fits and often do not repeat.

Molecular target: Nuclear receptor ROR-alpha (Homo sapiens) (UniProt P35398)
Test: ROR alpha selectivity assay for inhibitors of ROR gamma transcriptional activity
Conditions: Drosophila S2 Gal4-RORalpha UAS-luciferase, 20 h
From the text: NIH Molecular Libraries Probe Production Network [MLPCN] NIH Chemical Genomics Center [NCGC] MLPCN Grant: R03 DA026211-01 Assay Provider: Dan Littman, New York University Assay Overview: The retinoic acid-related orphan receptor (ROR) gamma is a transcription factor that has a central role in the differentiation of Th17 cells, a subset of T helper cells that secrete the inflammatory cytokines IL-17A, IL-17F, and IL-22. Th17 cells have been implicated in graft versus host disease, autoimmune disease and asthma. RORgamma is induced in naive T helper cells in the presence of TGF-beta combined with IL-6, IL-21, or IL-23, and thereafter directs the expression of the Th17 lineage cytokines. […] Small molecule inhibitors that inhibit RORgamma and RORalpha, or components common to both, will be active in both assays and thus scored as nonselective.
Assay Protocol Summary: For screening, 600 cells in 4 uL/well were dispensed into white solid 1536-well plates (Grenier) using a solenoid-based dispenser. […] After addition of 1.5 uL Photinus luciferase detection reagent, the plates were incubated 10 min at ambient temperature and then read by an ViewLux (Perkin Elmer) to detect luminescence.

## CO[C@H]1[C@@H](O)CC(OC2[C@@H](O)CC(OC3[C@@H](O)C[C@H](OC4CC[C@@]5(C)C(CCC6C5CC(O)[C@]5(C)[C@H](C7=CC(=O)OC7)CCC65O)C4)O[C@@H]3C)O[C@@H]2C)O[C@@H]1C (some centres not stated)
  Potency: inconclusive: 18.2 nM [inhibitor, full curve, poor fit]

## CC1OC(O[C@@H]2C(O)CC(O[C@@H]3C(O)C[C@@H](OC4CC[C@@]5(C)C6CC[C@]7(C)C(C8=CC(=O)OC8)C(O)C[C@@]7(O)[C@H]6CC[C@@H]5C4)OC3C)OC2C)CC(O)C1O (some centres not stated)
  Potency: inconclusive: 1150 nM [inhibitor, full curve, poor fit]
